The experiment relates to KB. The experiment in a line: Growth inhibition of human KB cells after 72 hrs by methylene blue dye assay. Type of experiment: functional, cell-based. The method, boiled down:
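Antiproliferative screen in human cancer lines: KB (oral epidermoid carcinoma), HT29 (colorectal carcinoma), H460 (non-small cell lung carcinoma), TSGH and MKN45 (stomach carcinoma), plus KB-VIN10, an MDR-positive line overexpressing P-gp 170/MDR. Potency is reported as IC50.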

The IC50 is the concentration that gives 50% inhibition.

`COc1cc2c(c(OC)c1OC)-c1ccc(OC)c(=O)cc1[C@@H](NC(C)=O)CC2` [COLCHICINE] showed a half-inhibitory concentration (IC50) of 12 nM.

The record behind these values is ChEMBL document CHEMBL1148754, “4- and 5-aroylindoles as novel classes of potent antitubulin agents” (J Med Chem, 2007).
